{"source": "patent US20160287566A1", "about": "“Anti-demodectic active agents and topical compositions for the treatment of demodicosis in humans and animals” (priority 2015, published 2016)", "experiment": "Solubility of the active ingredients in water and in ethanol/isopropanol", "format": "physicochemical", "conditions": "weight to volume, heated to 170 degrees F.", "note": "Some results were stated once for a whole list of compounds, not compound by compound. At least one compound was matched to its structure with a doubt left."}
{"smiles": "Cc1cc(CC(C)CC(C)(C)C)n(O)c(=O)c1.NCCO", "note": "(centres unmarked) [piroctone olamine, 1-Hydroxy-4methyl-6-(2,4,4-trimethylpentyl)-2(1H) pyridinone, 2-aminoethanol salt]", "values": [{"measurement": "parts ethanol and/or isopropanol in which the powder dissolves", "value": "4-5 parts"}]}
{"smiles": "CC(C)(C)C(=O)C(Oc1ccc(Cl)cc1)n1ccnc1", "note": "(centres unmarked) [climbazole, 1-(4-Chlorophenoxy)-1-(imidazol-1-yl)-3,3-dimethyl-2-butanone]", "values": [{"measurement": "parts ethanol and/or isopropanol in which the powder dissolves", "value": "4-5 parts"}]}
